According to article PMC9110341, “A nucleotide-sensing oligomerization mechanism that controls NrdR-dependent transcription of ribonucleotide reductases” (Nature Communications, 2022):
Positions count from the first letter of the chain named. For part of these data: Negatives hold for the conditions tested. For part of these data: At least one verdict rests on a figure or table, not on a statement of the authors. For part of these data: Construct, isoform or probe ends are uncertain for at least one entry. For part of these data: Protein sequences can lack the tags named with them. For part of these data: The direction of at least one scale is not stated here.

Sequences of proteins named here, by UniProt entry; tags and fusion partners are left off. Residues count along the entry.
UniProt P02769, 25-607: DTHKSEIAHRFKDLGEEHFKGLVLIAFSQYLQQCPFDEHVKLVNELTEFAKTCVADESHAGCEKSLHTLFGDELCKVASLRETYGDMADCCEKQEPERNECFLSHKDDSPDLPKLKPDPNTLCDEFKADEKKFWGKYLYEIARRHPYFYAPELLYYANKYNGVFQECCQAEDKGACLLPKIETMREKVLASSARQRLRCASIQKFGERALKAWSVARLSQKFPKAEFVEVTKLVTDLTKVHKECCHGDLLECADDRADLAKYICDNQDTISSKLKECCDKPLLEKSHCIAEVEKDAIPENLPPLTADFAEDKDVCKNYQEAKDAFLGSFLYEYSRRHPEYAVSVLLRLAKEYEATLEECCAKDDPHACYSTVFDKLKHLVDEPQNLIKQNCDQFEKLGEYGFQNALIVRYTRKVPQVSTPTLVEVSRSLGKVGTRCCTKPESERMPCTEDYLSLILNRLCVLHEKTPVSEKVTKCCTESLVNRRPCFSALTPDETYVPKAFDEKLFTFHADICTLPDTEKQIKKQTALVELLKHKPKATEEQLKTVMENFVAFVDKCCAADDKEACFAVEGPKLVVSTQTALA

Assays:
Experiment in all cases: MST
[1] = biological target: T1, NrdR (Streptomyces coelicolor M145) (UniProt O69980); conditions: MST: 25 mM Tris-HCl pH 7.6, 150 mM NaCl, 10 mM MgCl2, 5% glycerol, 1 mM DTT, 0.05% Tween-20, nucleotides 1 mM each, 10 nM Cy5-dsDNA, room temperature, recombinant protein, protein details: C-terminal His6 (pET30a); for binding signal (fold lower affinity than wild-type DNA): 1 mM dATP + 1 mM ATP
T1 sequence (looked up, limits assumed): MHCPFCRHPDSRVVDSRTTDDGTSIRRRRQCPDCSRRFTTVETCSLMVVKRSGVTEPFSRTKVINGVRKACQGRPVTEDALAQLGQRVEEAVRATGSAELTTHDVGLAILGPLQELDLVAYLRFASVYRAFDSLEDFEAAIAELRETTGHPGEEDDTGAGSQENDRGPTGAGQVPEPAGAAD

[2] = biological target: T2, NrdR D15A (Streptomyces coelicolor M145) (UniProt O69980); conditions: 1 mM dATP + 1 mM ATP, 10- to 100-fold stronger than wild-type NrdR on mutant DNAs; MST: 25 mM Tris-HCl pH 7.6, 150 mM NaCl, 10 mM MgCl2, 5% glycerol, 1 mM DTT, 0.05% Tween-20, nucleotides 1 mM each, 10 nM Cy5-dsDNA, room temperature; recombinant protein; protein details: C-terminal His6 (pET30a); label: 5'-Cy5 on sense strand
T2 sequence (looked up, limits assumed): T1 sequence (looked up, limits assumed) with D15A

[3] = biological target: T3, NrdR R17A (Streptomyces coelicolor M145) (UniProt O69980); conditions: 1 mM dATP + 1 mM ATP; MST: 25 mM Tris-HCl pH 7.6, 150 mM NaCl, 10 mM MgCl2, 5% glycerol, 1 mM DTT, 0.05% Tween-20, nucleotides 1 mM each, 10 nM Cy5-dsDNA, room temperature; recombinant protein; protein details: C-terminal His6 (pET30a); label: 5'-Cy5 on sense strand
T3 sequence (looked up, limits assumed): T1 sequence (looked up, limits assumed) with R17A

[4] = biological target: BSA (UniProt P02769); conditions: ATP + dATP; MST: 25 mM Tris-HCl pH 7.6, 150 mM NaCl, 10 mM MgCl2, 5% glycerol, 1 mM DTT, 0.05% Tween-20, nucleotides 1 mM each, 10 nM Cy5-dsDNA, room temperature; commercial protein; label: 5'-Cy5 on sense strand

GCCAATCCCCACATCTAGTGGTTGGATAGCGTGAGCAGCTCACAAGTTTTGGTCCCC (double strand) [nrdRJ T9/T18]
binding signal (fold lower affinity than wild-type DNA) ([1]; label: 5'-Cy5 on sense strand): > 100 | binding result [2]: binds | binding result [3]: no binding

GCCAATCCTCACATCTATTGGTTGGATAGCGTGAGCAGCTCACAAGTTTTGGTCCCC (double strand) [nrdRJ T9/T18/T40/T49]
binding signal (fold lower affinity than wild-type DNA) ([1]; label: 5'-Cy5 on sense strand): > 100 | binding result [2]: binds

GCCAATCCCCACATCTAGTGGTTGGATAGCGTGAGCAGCCCACAAGTTGTGGTCCCC (double strand) [nrdRJ promoter 57 bp]
Kd ([1]; cyclic di-AMP + ATP (fit 21.6 uM, oligo nrdRJ by file order), label: 5'-Cy5 on sense strand): > 19 µM | Kd ([1]; no nucleotide (fit 29.3 uM), label: 5'-Cy5 on sense strand): > 19 µM

GCCAATCCTCACATCTATTGGTTGGATAGCGTGAGCAGCCCACAAGTTGTGGTCCCC (double strand) [nrdRJ T40/T49]
binding signal (fold lower affinity than wild-type DNA) ([1]; label: 5'-Cy5 on sense strand): > 100 | binding result [2]: binds | binding result [3]: no binding

CCGGGACACAACATCTGGGGGTGCTCGCGTCCCCCGGCACAAGATGTATGCTCATGC (double strand) [nrdAB promoter 57 bp]
binding result [4]: no binding | Kd ([1]; ADP + ATP (fit 18.96 uM), label: 5'-Cy5 on sense strand): > 10 µM | Kd ([1]; AMP only, no plateau, judged non-specific, label: 5'-Cy5 on sense strand): 5.39 µM | Kd ([1]; ATP + dAMP, no plateau, judged non-specific, label: 5'-Cy5 on sense strand): 9.37 µM | Kd ([1]; cyclic di-AMP only, no plateau, judged non-specific, label: 5'-Cy5 on sense strand): 6.68 µM | Kd ([1]; dADP + ADP (fit 10.65 uM), label: 5'-Cy5 on sense strand): > 10 µM | Kd ([1]; dADP + ATP (fit 96 uM), label: 5'-Cy5 on sense strand): > 19 µM | Kd ([1]; dADP only (fit 10.2 uM), label: 5'-Cy5 on sense strand): > 10 µM | Kd ([1]; dAMP only, no plateau, judged non-specific, label: 5'-Cy5 on sense strand): 4.07 µM | Kd ([1]; dATP only (fit 11.2 uM, biphasic), label: 5'-Cy5 on sense strand): > 10 µM | Kd ([1]; no nucleotide (fit 11.3 uM, no plateau), label: 5'-Cy5 on sense strand): > 10 µM

CCGGGACACAACATCTGGGGGTGCTCGCGTCCCCCGGCACAAGATGTATGCTCATGC (double strand) [nrdAB promoter 57 bp, Cy5 antisense]
Kd ([1]; dATP only (fit 78 uM), label: 5'-Cy5 on antisense strand): > 19 µM

GCCAATCCGCACATCTACTGGTTGGATAGCGTGAGCAGCCCACAAGTTGTGGTCCCC (double strand) [nrdRJ G9/C18]
binding result [2]: binds

GCCAATCCCCACATCTACTGGTTGGATAGCGTGAGCAGCCCACAAGTTCTGGTCCCC (double strand) [nrdRJ C18/C49]
binding result [2]: binds
